Test results taken from PMC5799255 (Scientific Reports, 2018).
End groups of sequences in plain letters are not given here.

Tests used:
peptide synthesis = settings: whole synthesis, TFA
peptide made by a vendor = settings: whole synthesis

Sequence | purity (crude or final not stated) (peptide synthesis; HCl for H5(61–90) V2) [%] | further results
EMIAAAIRAEKSRGGSSRQS | 50 | 
VGHNADLQIKLSIRRLLAAGVLKQTKGVGA |  | final purity (method not given) (peptide made by a vendor; HCl): 96.5%; final purity (method not given) (peptide made by a vendor; TFA): 95.5%; purity (crude or final not stated) (peptide synthesis): 81.4%
EMIAAAIRAEKSRGGSSRQSIQKYIKSHYK | 81.9 | 
VLKQTKGVGASGSFRLAKSD | 78.1 | 
RVKASRRSASHPTYSEMIAAAIRAEKSRGG | 57.7 | 
LSIRRLLAAGVLKQTKGVGA | 80.9 | 
